This note sets out measurements from publication PMC8617094.

B1: GTF-2H2C (protein, UniProt P34567 1-376)
chain: MDDDEQKGYTWEAGYAEGLNINDVLVEDEGGSIEKSIAKYVADSKRKARLTKRPERIRLGIMRHVMIVIDCSRFMTSKAMPPSRFVVVMKALQTFLDRFFEQNPIAQIGLITCKDRKADRLTMMTGNIRVLKESLNTLTEAFCGGDFSLQNALQLACANLKGMPGHVSREVVLVISALSTIDPGNIYSTIETMKRMNIRCSAIGLSAEMFVCKEMAKATKGEYSVALDPDHLQLLFSKHTLPPSSAKSSECNAIHVGFPHHELITTRSFCVCHPDTKPISSRGFICTQCGARHCSIPAECPVCKLTLVAAPQLARAFRHLQPLSAFEQIEVTRGFCYACETRLSGEGFRCGSCQLVFCLDCDTLLHESLHVCPGCN
B2: CDK-7 (protein, UniProt G5EFV5 1-330)
chain: MSRRYDTIKHLGEGQFANVYLAQDLESGECVAIKKIKLGSREEAKDGINRTAIREIKLLKEIHHDNIIGLRDVIGHRTSIQLVFDFMDTDLEHVIKDKEIILMPAHIKNITMQMLLGLEFLHVHWILHRDLKPNNLLMNKMGRVKLTDFGLARFFGSPNRNYTHQVVTRWYRAPELLFGARSYGVGIDIWSVGCIIAELLLRNPIFPGESDIDQLVKIFNILGCPTPETWPNMTEMNSYVIIKPQTEYMALNYYFSAAPQDLLDLMAGMWTFDPIKRLTCTQSLQMEYFRTQPFCCLDEELPLPKKQQPQKRSRRLDDDGTRPVRRLNFD
B3: GTF-2H5 (C. elegans TTDA ortholog) (protein, UniProt Q9N390 1-71)
chain: MVNVKKGVLVTSDPAFRQLLIHLDDSRQLGSKFIVRELDDTHLFIEKEIVPMLENKVEQIMENMNPEAVDK

No constants are given. Whether binding was seen depends on the method and setting. Binding seen in cells or lysates may run through a third protein. These calls come from enrichment with a bait or labelling near it, and not all partners need be listed.

The assay addresses AG::GTF-2H1 (AID::GFP-tagged GTF-2H1, C. elegans ortholog of TFIIH subunit GTF2H1/p62) (C. elegans). Kind of assay: affinity purification with mass spectrometry; GFP-TRAP-A agarose IP of AG::GTF-2H1 from sonicated, Benzonase-treated lysates of C. elegans (wild type and gtf-2H5(tm6360) animals); IP buffer 30 mM HEPES pH 7.5, 130 mM NaCl, 1 mM MgCl2, 0.5% Triton X-100; 2 h at 4 °C; LC-MS/MS; three replicates.
With B1, the binding result was “binds”.
In the case of B2, the binding result was “binds”.
Take B3: the binding result is given as “binds”.
